Measured values taken from patent US20020002167A1, “Dihydropyridine compounds and composition containing the same” (AJINOMOTO CO., INC., priority 1998, published 2002).
At least one compound was matched to its structure with a doubt left.

Chains of the proteins cited; added tags and fusions are not shown.
UniProt Q00975, whole entry: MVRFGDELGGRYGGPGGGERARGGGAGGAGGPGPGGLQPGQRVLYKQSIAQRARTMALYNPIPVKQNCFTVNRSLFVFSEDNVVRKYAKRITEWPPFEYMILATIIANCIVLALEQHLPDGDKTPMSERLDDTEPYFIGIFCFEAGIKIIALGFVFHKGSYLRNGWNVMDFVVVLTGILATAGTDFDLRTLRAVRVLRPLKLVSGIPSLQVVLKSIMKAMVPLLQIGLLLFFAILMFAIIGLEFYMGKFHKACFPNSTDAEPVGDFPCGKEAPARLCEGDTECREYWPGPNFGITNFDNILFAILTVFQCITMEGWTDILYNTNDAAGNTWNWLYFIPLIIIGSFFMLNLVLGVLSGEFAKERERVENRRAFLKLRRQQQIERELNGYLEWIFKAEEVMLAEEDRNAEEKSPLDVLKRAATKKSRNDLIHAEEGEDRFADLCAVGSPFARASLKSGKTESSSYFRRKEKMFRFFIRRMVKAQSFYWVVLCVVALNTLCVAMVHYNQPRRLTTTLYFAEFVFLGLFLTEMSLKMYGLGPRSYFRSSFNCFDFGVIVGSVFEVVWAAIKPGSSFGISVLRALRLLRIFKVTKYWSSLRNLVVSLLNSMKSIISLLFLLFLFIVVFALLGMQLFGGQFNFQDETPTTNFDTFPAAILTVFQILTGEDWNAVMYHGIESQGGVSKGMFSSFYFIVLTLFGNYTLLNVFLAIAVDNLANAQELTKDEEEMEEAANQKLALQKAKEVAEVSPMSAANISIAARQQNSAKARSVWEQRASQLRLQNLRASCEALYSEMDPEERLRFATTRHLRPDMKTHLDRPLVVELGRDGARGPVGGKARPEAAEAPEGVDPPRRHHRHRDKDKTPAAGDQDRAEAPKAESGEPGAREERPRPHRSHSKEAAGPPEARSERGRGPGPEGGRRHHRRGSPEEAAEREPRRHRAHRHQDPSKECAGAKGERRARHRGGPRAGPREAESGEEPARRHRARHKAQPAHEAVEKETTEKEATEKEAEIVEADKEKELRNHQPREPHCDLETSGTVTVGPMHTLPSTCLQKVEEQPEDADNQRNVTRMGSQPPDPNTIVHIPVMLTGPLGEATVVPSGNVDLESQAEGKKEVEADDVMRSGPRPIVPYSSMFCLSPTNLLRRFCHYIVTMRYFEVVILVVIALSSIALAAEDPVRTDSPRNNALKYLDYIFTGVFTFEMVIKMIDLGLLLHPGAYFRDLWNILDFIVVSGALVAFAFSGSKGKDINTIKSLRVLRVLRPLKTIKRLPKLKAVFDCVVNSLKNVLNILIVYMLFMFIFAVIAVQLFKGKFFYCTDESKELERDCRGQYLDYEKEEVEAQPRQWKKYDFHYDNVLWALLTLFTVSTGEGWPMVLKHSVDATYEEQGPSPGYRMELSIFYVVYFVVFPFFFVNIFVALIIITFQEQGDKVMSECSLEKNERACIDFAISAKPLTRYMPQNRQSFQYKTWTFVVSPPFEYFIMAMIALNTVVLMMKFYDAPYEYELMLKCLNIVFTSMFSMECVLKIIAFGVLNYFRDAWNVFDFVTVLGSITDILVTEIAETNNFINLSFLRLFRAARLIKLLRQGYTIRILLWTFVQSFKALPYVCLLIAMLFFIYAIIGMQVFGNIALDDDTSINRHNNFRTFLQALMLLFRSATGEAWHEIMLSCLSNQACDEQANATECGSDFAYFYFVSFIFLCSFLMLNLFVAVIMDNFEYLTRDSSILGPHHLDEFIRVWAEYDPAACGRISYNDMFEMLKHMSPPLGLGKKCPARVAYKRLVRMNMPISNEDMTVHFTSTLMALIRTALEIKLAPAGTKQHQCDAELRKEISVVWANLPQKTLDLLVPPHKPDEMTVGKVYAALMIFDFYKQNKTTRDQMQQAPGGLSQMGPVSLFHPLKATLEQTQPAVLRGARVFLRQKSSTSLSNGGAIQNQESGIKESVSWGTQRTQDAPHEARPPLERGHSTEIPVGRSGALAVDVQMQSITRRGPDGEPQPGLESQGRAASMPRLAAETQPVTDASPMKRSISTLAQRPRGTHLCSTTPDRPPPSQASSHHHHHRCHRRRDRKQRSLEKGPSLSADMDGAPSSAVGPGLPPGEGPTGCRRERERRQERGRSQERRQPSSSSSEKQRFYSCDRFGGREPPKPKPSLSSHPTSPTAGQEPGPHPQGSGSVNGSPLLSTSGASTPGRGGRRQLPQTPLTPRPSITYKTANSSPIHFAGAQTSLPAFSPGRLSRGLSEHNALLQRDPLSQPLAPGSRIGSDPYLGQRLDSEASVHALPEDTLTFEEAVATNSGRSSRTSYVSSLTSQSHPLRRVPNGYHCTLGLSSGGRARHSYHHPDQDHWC

Target: N-type calcium channel (Homo sapiens, UniProt Q00975)
Experiment: Inhibiting activity on N-type calcium channel and L-type calcium channel
Conditions: determined on N-type calcium channel and L-type calcium channel; selectivity stated in words only

## CCNC(C)C(C(=O)O)C(CC(=O)OCCCN1CCN(C(c2ccccc2)C2C=C=CC=C2)CC1)c1cccc([N+](=O)[O-])c1 (stereo not shown) [Example 1, Mono(2-(4-benzhydrylpiperazine-1-yl)ethyl)2,6-dimethyl-4-(3-nitrophenyl)-1,4-dihydropyridine-3,5-dicarboxylate]
  inhibiting activity on N-type calcium channel: selectively inhibiting N-type calcium channel
